The data set deals with Colo320/MDR-LRP colon adenocarcinoma cell line. The data set is described as follows: MTT cytotoxicity assay on doxorubicin-resistant, ABCB1- and LRP-expressing Colo320 cells. Conditions: ratio of IC50 in resistant Colo320 and IC50 in sensitive Colo205. The format is cell-based, human. The method, then: The doxorubicin-sensitive Colo205 (ATCC-CCL-222) and the doxorubicin-resistant ABCB1- and LRP-expressing Colo320/MDR-LRP (ATCC-CCL-220.1) human colon adenocarcinoma cell lines were obtained from LGC Promochem in Teddington, UK. These cell lines were cultivated in RPMI 1640 medium supplemented with 10% heat-inactivated foetal bovine serum (FBS), 2 mM L-glutamine, 1 mM Na-pyruvate, 10 mM HEPES, along with nystatin, and gentamicin. The normal MRC-5 (ATCC CCL-171) human embryonic lung fibroblast cell line was purchased from Sigma-Aldrich (Merck KGaA, Darmstadt, Germany). The MRC-5 cells were cultured in EMEM medium, supplemented with 1% non-essential amino acid (NEAA) mixture, a selection of vitamins, 10% heat-inactivated FBS, 2 mM L-glutamine, 1 mM Na pyruvate, nystatin, and gentamicin. The cell lines were incubated in humidified atmosphere (5% CO2, 95% air) at 37 °C. The cells were detached with a Trypsin-Versene (EDTA) solution for 5 min at 37 °C.
The effects of increasing concentrations of the compounds on cell growth were tested in 96-well flat-bottomed microtiter plates. Namely, 1 × 10^4 of human colonic adenocarcinoma cells in 100 μL of the medium (RPMI 1640) were added to each well, except for the medium control wells. The adherent human embryonic lung fibroblast cell line was seeded in the EMEM medium for 24 h before the assay. The two-fold serial dilutions of the compounds were made in a separate plate (100–0.19 μM) and then transferred to the plates containing the cells. The starting concentration of the solvent DMSO was 2% v/v, and the highest concentration of the compounds in the plate was 100 μM. Plates were incubated at 37 °C for 24 h. At the end of the incubation, 20 μL of MTT (thiazolyl blue tetrazolium bromide) solution (from a 5 mg/mL stock solution) was added to each well. After incubation at 37 °C for 4 h, 100 μL of sodium dodecyl sulfate (SDS) solution (10% SDS in 0.01 M HCl) was added to each well, and the plates were further incubated at 37 °C overnight. Cell growth was determined by measuring the optical density (OD) at 540 nm (ref. 630 nm) with a Multiscan EX ELISA reader (Thermo Labsystems, Cheshire, WA, USA). Inhibition of cell growth was expressed as IC50 values, defined as the inhibitory dose that reduces the growth of the cells exposed to the tested compounds by 50%. IC50 values and the SD of triplicate and duplicate (in the case of MRC-5) experiments were calculated by using GraphPad Prism software version 5.00 for Windows, with a non-linear regression curve fit (GraphPad Software, San Diego, CA, USA; www.graphpad.com, accessed on 12 July 2021). Doxorubicin (from a 2 mg/mL stock solution, Teva Pharmaceuticals) was used as a positive control. […] The relative resistance (RR) was calculated as the ratio of the IC50 value in the resistant cancer cells and the IC50 value in the sensitive cancer cell lines. The selectivity indexes (SI) were calculated as the ratio of the IC50 value in the non-tumor cells and the IC50 value in the cancer cell lines. The activity of the compounds towards cancer cells is considered to be strongly selective if the selectivity index (SI) value is higher than 6, moderately selective if 3 < SI < 6, slightly selective if 1 < SI < 3, and non-selective if the SI is lower than 1 [22].
`Oc1c(C(c2ccccc2)c2c[nH]c3ccccc23)cc(Cl)c2cccnc12` (centres unmarked) [Compound 14, 7-((1H-indol-3-yl)(phenyl)methyl)-5-chloroquinolin-8-ol]: the “Relative resistance RR Colo320/Colo205” value is 1.07.
With `CCOC(=O)C(c1cc(Cl)c2cccnc2c1O)N1CCOCC1` (centres unmarked) [Compound 10, Ethyl 2-(5-chloro-8-hydroxyquinolin-7-yl)-2-morpholinoacetate], the “Relative resistance RR Colo320/Colo205” value was found to be 0.83.
For the compound `Oc1c(Cc2c[nH]c3ccccc23)cc(Cl)c2cccnc12` [Compound 16, 7-((1H-indol-3-yl)methyl)-5-chloroquinolin-8-ol], the “Relative resistance RR Colo320/Colo205” value worked out at 0.37.
For `CCOC(=O)C(c1cc(Cl)c2cccnc2c1O)c1c[nH]c2ncccc12` (centres unmarked) [Compound 12, Ethyl 2-(5-chloro-8-hydroxyquinolin-7-yl)-2-(7-azaindole-3-yl)acetate], the “Relative resistance RR Colo320/Colo205” value stood at 0.62.
As for `CCOC(=O)C(c1cc(Cl)c2cccnc2c1O)c1c[nH]c2ccccc12` (centres unmarked) [Compound 11, Ethyl 2-(5-chloro-8-hydroxyquinolin-7-yl)-2-(1H-indol-3-yl)acetate], the “Relative resistance RR Colo320/Colo205” value is on record as 0.98.

Values taken from article PMC11396803, “Synthesis of Tumor Selective Indole and 8-Hydroxyquinoline Skeleton Containing Di-, or Triarylmethanes with Improved Cytotoxic Activity” (Molecules, 2024).
